# Assay results taken from PubChem BioAssay AID1053173 (Broad Institute, 2014).
# Chains of the proteins cited; added tags and fusions are not shown. Lines headed by an entry give the natural chain unless they say otherwise; changes in a name come on top.
# UniProt O96028: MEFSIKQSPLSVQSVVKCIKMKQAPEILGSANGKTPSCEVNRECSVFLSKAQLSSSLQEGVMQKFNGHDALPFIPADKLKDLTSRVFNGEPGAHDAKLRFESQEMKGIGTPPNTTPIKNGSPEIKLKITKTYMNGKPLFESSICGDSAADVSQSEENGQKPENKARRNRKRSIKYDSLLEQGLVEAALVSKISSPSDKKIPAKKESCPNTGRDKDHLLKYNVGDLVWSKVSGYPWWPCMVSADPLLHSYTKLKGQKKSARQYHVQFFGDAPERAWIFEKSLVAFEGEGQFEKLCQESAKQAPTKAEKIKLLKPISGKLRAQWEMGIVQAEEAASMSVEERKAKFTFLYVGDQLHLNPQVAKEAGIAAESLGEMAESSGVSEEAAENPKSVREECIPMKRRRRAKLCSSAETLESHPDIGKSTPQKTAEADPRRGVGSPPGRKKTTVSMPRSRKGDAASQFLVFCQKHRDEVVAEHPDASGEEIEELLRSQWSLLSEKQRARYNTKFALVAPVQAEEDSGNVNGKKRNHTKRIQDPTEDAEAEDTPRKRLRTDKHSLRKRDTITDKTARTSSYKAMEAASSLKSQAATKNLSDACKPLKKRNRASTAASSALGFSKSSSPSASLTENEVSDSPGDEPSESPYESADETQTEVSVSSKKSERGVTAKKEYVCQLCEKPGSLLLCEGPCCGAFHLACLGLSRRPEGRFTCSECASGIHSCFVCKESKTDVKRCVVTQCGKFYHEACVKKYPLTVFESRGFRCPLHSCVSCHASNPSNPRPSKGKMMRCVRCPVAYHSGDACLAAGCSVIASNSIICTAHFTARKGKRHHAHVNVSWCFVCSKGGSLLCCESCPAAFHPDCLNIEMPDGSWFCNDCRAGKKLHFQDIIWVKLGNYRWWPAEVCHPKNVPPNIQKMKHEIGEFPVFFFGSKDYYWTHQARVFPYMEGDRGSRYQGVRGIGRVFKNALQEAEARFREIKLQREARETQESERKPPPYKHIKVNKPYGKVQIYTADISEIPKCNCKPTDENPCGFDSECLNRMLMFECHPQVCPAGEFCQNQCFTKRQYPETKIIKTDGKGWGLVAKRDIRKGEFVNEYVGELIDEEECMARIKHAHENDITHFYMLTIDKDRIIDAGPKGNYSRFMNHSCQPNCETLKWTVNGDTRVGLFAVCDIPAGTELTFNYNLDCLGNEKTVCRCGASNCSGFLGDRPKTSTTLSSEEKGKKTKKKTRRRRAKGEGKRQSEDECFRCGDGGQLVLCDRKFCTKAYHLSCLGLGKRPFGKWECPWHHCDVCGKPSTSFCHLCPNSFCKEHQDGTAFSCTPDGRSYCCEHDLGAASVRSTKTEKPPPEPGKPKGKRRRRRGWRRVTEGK
# In all, about 1,500 compounds went through this assay and about 390 (26%) were called active. No rule for the calls is given here. The entries are a selection whose mix differs from that of the whole data set. Measured potencies and affinities stand elsewhere.
# Molecular target: Histone-lysine N-methyltransferase NSD2 (Homo sapiens) (UniProt O96028)
# Assay: blockers of NSD2 H4 peptide methylation – biochemical, AlphaScreen, cherry-picked samples, dose response (AID 1053173);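 also: 0% = neutral control wells and -100% = positive control wells on each plate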
# Conditions: 120 min; at 10 µM (top of the series)
row,Structure (SMILES),"activity change, negative = inhibition"
1,O=C1NC(=O)C(Sc2ccccc2[N+](=O)[O-])C(=O)N1,inactive: -5.49%
2,CC(C)n1c(=O)c(C=Nc2ccc(S(N)(=O)=O)cc2)c(O)n(Cc2ccco2)c1=O,inactive: -1.36%
3,COCCCNC(=O)c1c(NC(=O)c2ccco2)n(Cc2ccccc2)c2nc3ccccc3nc12,inactive: 3.29%
4,Cc1ccc(N2C(=O)NC(=O)/C(=C/c3ccc(OC(=O)c4cccs4)cc3)C2=O)cc1,inactive: -2.22%
5,Cn1c(=O)[nH]c2nncnc2c1=O,inactive: -1.88%
6,CCNC(=S)NCCC1=c2ccccc2=N/C1=C\c1c(O)n(C)c(=O)n(C)c1=O,inactive: -4.12%
7,Nc1c(C(=O)NC2CCCC2)c2nc3ccccc3nc2n1CC1CCCO1 (stereo not given),inactive: 4.53%
8,O=C1NC(=O)N(c2ccccc2)C(=O)/C1=C/c1ccoc1,inactive: -4.29%
9,CC(=O)N(C)C1=Nc2ccc(Cl)cc2C(c2ccccc2)=[N+]([O-])C1,inactive: -2.62%
10,Cn1c(O)c(/C=C/C=Nc2ccccc2)c(=O)n(C)c1=S,inactive: -0.067%
11,Cc1c(C(=O)O)cccc1-n1c(C)cc(/C=C2\C(=O)NC(=O)N(c3ccc4c(c3)OCO4)C2=O)c1C,inactive: -12.3%
12,CCCCCn1c(N)c(C(=O)NCc2cccs2)c2nc3ccccc3nc21,inactive: 0.109%
13,CC1(C)CC(=O)C2=C(C1)NC(=O)C21C(C(=O)OC(C)(C)C)=C(N)Oc2ccc(Br)cc21 (stereo not given),inactive: -0.106%
14,COCCN1C(=O)/C(=C/c2c(OC)cc(OC)cc2OC)C(=O)N(c2ccccc2)C1=O,inactive: -4.09%
15,CC(C)c1ccc(N2C(=O)NC(=O)/C(=C\C=C\c3ccco3)C2=O)cc1,inactive: -11.6%
16,Cc1ccc(N2C(=O)NC(=O)/C(=C/c3cnn(-c4ccc(C)cc4)c3)C2=O)cc1,inactive: -8.44%
17,CCOc1cc(/C=C2\C(=O)NC(=O)N(CCc3ccc(F)cc3)C2=O)ccc1O,inactive: -4.5%
18,Fc1ccc(Cn2nnnc2C(c2ccc(Cl)cc2)N2CC=C(c3ccc(F)cc3)CC2)cc1 (stereo not given),inactive: -4.62%
19,COc1cc(O)cc2c1C(=O)OC(C)CCCC(=O)CCC/C=C\2 (stereo not given),inactive: 1.48%
20,CCCCn1c(N)c(C(=O)OCC2CCCO2)c2nc3ccccc3nc21 (stereo not given),inactive: 3.04%
21,COCCNC(=O)c1c(NC(=O)c2ccco2)n(Cc2ccccc2)c2nc3ccccc3nc12,inactive: 13.2%
22,Clc1ccccc1Nc1ncnc(-n2cccc2)n1,inactive: -2.42%
23,CCN1C[C@]2(CO)CC[C@H](OC)[C@@]34C2[C@H](OC)[C@@](O)(C13)[C@@]1(O)C[C@H](OC)[C@H]2C[C@@H]4[C@@H]1[C@H]2OC,inactive: -5.24%
24,O=C(c1cc2ccccc2oc1=O)N1CCC2(CC1)OCCO2,inactive: -2.87%
25,COCCCn1c(N)c(C(=O)OCCOC)c2nc3ccccc3nc21,inactive: -1.56%
26,COc1cccc(N2C(=O)NC(=O)/C(=C\c3ccc([N+](=O)[O-])s3)C2=O)c1,inactive: -13.7%
27,O=[N+]([O-])c1ccc(N2CCCC2)c2ccncc12,inactive: -4.53%
28,CN(C)C(CNC(=O)Cc1ccc(Br)cc1)c1ccccc1 (stereo not given),inactive: -2.02%
29,CCCCn1c(NS(=O)(=O)c2ccccc2)c(C(=O)OCC)c2nc3ccccc3nc21,inactive: -0.46%
30,O=C1NC(=S)NC(=O)C1=Cc1ccc(Br)s1,inactive: -5.38%

# Arranged by SMILES length (ascending): 5 of the compounds above.
row,Structure (SMILES),"activity change, negative = inhibition"
5,Cn1c(=O)[nH]c2nncnc2c1=O,inactive: -1.88%
24,O=C(c1cc2ccccc2oc1=O)N1CCC2(CC1)OCCO2,inactive: -2.87%
25,COCCCn1c(N)c(C(=O)OCCOC)c2nc3ccccc3nc21,inactive: -1.56%
3,COCCCNC(=O)c1c(NC(=O)c2ccco2)n(Cc2ccccc2)c2nc3ccccc3nc12,inactive: 3.29%
13,CC1(C)CC(=O)C2=C(C1)NC(=O)C21C(C(=O)OC(C)(C)C)=C(N)Oc2ccc(Br)cc21 (stereo not given),inactive: -0.106%
